# The other results are listed elsewhere or left out. Only hits are listed; about a third recur on repeated control peptides.
# Chains of the proteins cited; added tags and fusions are not shown.
# DLX6, P56179, UniProt P56179, whole entry: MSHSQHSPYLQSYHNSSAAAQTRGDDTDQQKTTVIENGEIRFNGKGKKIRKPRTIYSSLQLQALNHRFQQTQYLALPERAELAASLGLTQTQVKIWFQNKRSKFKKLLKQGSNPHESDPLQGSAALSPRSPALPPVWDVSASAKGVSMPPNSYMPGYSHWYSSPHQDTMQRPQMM
# DPYSL3, Q14195, UniProt Q14195, whole entry: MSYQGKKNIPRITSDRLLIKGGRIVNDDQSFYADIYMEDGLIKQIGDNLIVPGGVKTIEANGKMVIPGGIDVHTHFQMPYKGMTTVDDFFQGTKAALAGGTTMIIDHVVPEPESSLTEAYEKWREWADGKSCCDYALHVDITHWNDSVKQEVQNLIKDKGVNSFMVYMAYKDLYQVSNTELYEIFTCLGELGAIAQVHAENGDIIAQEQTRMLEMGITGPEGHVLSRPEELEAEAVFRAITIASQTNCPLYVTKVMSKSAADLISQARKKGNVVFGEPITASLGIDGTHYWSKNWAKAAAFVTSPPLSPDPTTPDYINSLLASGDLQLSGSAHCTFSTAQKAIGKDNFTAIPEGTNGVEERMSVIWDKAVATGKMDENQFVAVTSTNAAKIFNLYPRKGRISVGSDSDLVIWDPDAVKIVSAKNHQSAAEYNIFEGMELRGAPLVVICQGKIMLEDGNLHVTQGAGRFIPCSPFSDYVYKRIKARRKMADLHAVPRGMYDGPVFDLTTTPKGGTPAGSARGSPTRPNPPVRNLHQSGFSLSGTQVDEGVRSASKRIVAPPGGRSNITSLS
# ASF1B, Q9NVP2, UniProt Q9NVP2, whole entry: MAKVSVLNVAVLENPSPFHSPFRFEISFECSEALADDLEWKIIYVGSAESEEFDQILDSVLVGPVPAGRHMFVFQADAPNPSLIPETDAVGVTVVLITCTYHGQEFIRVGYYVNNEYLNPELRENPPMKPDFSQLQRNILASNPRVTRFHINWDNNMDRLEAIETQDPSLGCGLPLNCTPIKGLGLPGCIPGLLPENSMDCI
# C3, P01024, UniProt P01024, whole entry: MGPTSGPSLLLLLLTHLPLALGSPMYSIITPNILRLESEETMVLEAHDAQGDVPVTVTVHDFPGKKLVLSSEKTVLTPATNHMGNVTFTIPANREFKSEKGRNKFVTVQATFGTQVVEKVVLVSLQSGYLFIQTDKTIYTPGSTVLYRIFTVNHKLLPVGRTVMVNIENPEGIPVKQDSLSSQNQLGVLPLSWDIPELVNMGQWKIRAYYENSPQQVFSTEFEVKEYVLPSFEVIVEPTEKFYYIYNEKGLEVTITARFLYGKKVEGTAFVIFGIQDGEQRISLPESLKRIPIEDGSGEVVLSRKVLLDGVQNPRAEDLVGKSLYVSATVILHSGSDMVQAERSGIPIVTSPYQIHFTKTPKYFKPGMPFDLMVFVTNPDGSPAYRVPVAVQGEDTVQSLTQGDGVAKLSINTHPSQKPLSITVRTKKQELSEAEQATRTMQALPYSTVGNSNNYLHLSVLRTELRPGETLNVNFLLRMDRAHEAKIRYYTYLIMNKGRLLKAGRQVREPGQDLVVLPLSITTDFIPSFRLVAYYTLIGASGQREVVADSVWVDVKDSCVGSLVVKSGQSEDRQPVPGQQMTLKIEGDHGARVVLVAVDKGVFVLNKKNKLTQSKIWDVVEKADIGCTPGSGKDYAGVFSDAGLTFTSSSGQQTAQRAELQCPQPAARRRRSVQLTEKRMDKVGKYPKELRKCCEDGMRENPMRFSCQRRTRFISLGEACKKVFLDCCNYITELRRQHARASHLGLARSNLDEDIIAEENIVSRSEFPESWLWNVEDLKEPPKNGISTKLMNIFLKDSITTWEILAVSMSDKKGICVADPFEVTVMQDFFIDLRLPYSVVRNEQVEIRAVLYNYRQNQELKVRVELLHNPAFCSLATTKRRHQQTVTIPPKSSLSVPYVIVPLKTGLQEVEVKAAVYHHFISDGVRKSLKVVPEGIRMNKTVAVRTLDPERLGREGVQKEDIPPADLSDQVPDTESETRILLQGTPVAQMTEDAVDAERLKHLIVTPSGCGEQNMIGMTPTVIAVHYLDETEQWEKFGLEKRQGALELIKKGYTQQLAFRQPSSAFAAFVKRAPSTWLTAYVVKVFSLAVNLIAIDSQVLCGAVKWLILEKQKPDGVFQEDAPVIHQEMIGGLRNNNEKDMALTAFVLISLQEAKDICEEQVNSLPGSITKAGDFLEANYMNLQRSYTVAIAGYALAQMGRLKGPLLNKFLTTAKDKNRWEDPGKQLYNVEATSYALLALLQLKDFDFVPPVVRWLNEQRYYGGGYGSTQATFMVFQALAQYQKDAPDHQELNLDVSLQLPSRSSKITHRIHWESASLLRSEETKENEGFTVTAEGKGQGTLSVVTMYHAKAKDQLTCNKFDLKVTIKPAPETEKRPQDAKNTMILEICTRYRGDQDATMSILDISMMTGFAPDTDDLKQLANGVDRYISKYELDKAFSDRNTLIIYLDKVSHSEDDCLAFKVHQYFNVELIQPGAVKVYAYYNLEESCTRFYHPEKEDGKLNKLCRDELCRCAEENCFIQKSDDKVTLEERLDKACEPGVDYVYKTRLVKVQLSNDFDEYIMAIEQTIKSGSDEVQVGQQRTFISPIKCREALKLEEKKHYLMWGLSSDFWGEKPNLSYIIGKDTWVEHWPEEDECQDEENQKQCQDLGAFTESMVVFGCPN
# RBM25, P49756, UniProt P49756, whole entry: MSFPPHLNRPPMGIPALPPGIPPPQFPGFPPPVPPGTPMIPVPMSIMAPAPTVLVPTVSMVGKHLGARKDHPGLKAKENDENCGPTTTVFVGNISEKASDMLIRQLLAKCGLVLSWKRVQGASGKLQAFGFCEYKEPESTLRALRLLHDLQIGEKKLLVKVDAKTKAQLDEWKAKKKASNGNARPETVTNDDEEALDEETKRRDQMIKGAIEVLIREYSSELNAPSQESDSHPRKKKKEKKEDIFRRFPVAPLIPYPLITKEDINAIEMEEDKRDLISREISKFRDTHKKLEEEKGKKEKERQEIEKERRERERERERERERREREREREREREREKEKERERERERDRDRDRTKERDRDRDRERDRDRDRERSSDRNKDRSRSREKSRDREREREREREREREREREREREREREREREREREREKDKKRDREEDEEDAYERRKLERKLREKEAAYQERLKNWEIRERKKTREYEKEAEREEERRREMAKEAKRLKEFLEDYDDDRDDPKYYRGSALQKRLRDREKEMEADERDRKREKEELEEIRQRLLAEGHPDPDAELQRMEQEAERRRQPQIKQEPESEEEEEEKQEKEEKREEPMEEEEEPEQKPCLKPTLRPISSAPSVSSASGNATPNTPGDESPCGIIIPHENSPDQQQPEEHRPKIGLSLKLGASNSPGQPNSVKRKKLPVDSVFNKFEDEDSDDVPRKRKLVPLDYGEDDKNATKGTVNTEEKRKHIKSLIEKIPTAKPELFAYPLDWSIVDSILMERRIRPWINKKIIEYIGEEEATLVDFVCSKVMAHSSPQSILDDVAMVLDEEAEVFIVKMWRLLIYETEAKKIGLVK
# CKS1B, P61024, UniProt P61024, whole entry: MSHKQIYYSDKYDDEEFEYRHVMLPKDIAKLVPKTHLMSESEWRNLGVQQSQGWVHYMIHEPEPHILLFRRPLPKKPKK
# CKS2, P33552, UniProt P33552, whole entry: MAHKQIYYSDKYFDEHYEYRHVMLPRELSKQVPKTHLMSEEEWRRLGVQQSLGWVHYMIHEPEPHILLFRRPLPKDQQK
# MPG, P29372, UniProt P29372, whole entry: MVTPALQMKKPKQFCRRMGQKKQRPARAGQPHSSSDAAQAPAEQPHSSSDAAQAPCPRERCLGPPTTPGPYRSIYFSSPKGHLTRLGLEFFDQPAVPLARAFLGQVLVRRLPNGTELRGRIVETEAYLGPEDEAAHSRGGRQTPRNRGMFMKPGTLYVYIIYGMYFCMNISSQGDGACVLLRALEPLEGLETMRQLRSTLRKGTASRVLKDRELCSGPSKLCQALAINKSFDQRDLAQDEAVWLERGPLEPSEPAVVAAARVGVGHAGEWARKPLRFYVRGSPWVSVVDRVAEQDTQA
# UFM1, P61960, UniProt P61960, whole entry: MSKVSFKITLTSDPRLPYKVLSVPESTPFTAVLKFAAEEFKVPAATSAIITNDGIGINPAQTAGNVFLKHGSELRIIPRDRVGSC
# B1: FKBP14 (peptide)
# chain: MKSRDLSLLL
# B2: ATM (peptide)
# chain: MCVLKL
# B3: HSPBP1 (peptide)
# chain: MAAPSRVRCGRLCL
# B4: NHLRC2 (peptide)
# chain: MRRLETTGQ
# B5: DOCK4 (peptide)
# chain: MTAPPGTRERVGGL
# B6: TSPAN14 (peptide)
# chain: MGSMSITWELAAL
# Experiments:
# Assay in all cases: PRISMA enrichment of interactor (LFQ) in peptide spot vs all other peptide spots (log2 fold change); higher = stronger / more specific binding of the interactor to the peptide
# BAG6, P46379 = target: BAG6, P46379
# Protocol: (§1)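 PRISMA: 221 full-length sORF-encoded peptides (3-15 aa), plus SOS1/GLUT1 control peptides, were spot-synthesized on cellulose membranes in triplicate. Membranes were incubated with HEK293T lysate, and bound proteins were identified by LC-MS/MS with LFQ. Enrichment is the log2 fold change versus all other peptide spots; only significant interactors are listed (cutoff c=6, x0=2.8).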
# CTSA, P10619 = target: CTSA, P10619
# Protocol: as §1
# MRPS31, Q92665 = target: MRPS31, Q92665
# Protocol: as §1
# TMEM41B, Q5BJD5 = target: TMEM41B, Q5BJD5
# Protocol: as §1
# C12orf57, Q99622 = target: C12orf57, Q99622
# Protocol: as §1
# CSNK2A1, P68400 = target: CSNK2A1, P68400
# Protocol: as §1
# RSL24D1, Q9UHA3 = target: RSL24D1, Q9UHA3
# Protocol: as §1
# TMED7-TICAM2 = target: TMED7-TICAM2
# Protocol: as §1
# C12orf65, Q9H3J6 = target: C12orf65, Q9H3J6
# Protocol: as §1
# DLX6, P56179 = target: DLX6, P56179
# Protocol: as §1
# DPYSL3, Q14195 = target: DPYSL3, Q14195
# Protocol: as §1
# FDX1, P10109 = target: FDX1, P10109
# Protocol: as §1
# MRFAP1, Q9Y605 = target: MRFAP1, Q9Y605
# Protocol: as §1
# NNT, Q13423 = target: NNT, Q13423
# Protocol: as §1
# ASF1B, Q9NVP2 = target: ASF1B, Q9NVP2
# Protocol: as §1
# C3, P01024 = target: C3, P01024
# Protocol: as §1
# CLTA, P09496 = target: CLTA, P09496
# Protocol: as §1
# COG5, Q9UP83 = target: COG5, Q9UP83
# Protocol: as §1
# EDRF1, Q3B7T1 = target: EDRF1, Q3B7T1
# Protocol: as §1
# KIF20A, O95235 = target: KIF20A, O95235
# Protocol: as §1
# KIF2C, Q99661 = target: KIF2C, Q99661
# Protocol: as §1
# NUP58, Q9BVL2 = target: NUP58, Q9BVL2
# Protocol: as §1
# PURA, Q00577 = target: PURA, Q00577
# Protocol: as §1
# AURKA, O14965 = target: AURKA, O14965
# Protocol: as §1
# DDX28, Q9NUL7 = target: DDX28, Q9NUL7
# Protocol: as §1
# ITPA, Q9BY32 = target: ITPA, Q9BY32
# Protocol: as §1
# RBM25, P49756 = target: RBM25, P49756
# Protocol: as §1
# SAPCD2, Q86UD0 = target: SAPCD2, Q86UD0
# Protocol: as §1
# SRRM1, Q8IYB3 = target: SRRM1, Q8IYB3
# Protocol: as §1
# STAG2, Q8N3U4 = target: STAG2, Q8N3U4
# Protocol: as §1
# C19orf53, Q9UNZ5 = target: C19orf53, Q9UNZ5
# Protocol: as §1
# CKS1B, P61024 = target: CKS1B, P61024
# Protocol: as §1
# CKS2, P33552 = target: CKS2, P33552
# Protocol: as §1
# CSNK1E, P49674 = target: CSNK1E, P49674
# Protocol: as §1
# CXorf56, Q9H5V9 = target: CXorf56, Q9H5V9
# Protocol: as §1
# DERPC, P0CG12 = target: DERPC, P0CG12
# Protocol: as §1
# DNAJA3, Q96EY1 = target: DNAJA3, Q96EY1
# Protocol: as §1
# GABARAPL2, P60520 = target: GABARAPL2, P60520
# Protocol: as §1
# ISCU, Q9H1K1 = target: ISCU, Q9H1K1
# Protocol: as §1
# MPG, P29372 = target: MPG, P29372
# Protocol: as §1
# NUDT16L1, Q9BRJ7 = target: NUDT16L1, Q9BRJ7
# Protocol: as §1
# NXF1, Q9UBU9 = target: NXF1, Q9UBU9
# Protocol: as §1
# [1] = substrate: PPIF, P30405
# Protocol: as §1
# PPIL2, Q13356 = target: PPIL2, Q13356
# Protocol: as §1
# UFM1, P61960 = target: UFM1, P61960
# Protocol: as §1
binder,measurement,setting,value
B1,PRISMA enrichment of interactor (log2),"BAG6, P46379",4.62
same,PRISMA enrichment of interactor (log2),"CTSA, P10619",4.71
same,PRISMA enrichment of interactor (log2),"MRPS31, Q92665",7
same,PRISMA enrichment of interactor (log2),"TMEM41B, Q5BJD5",3.82
B2,PRISMA enrichment of interactor (log2),"C12orf57, Q99622",3.68
same,PRISMA enrichment of interactor (log2),"CSNK2A1, P68400",5.77
same,PRISMA enrichment of interactor (log2),"RSL24D1, Q9UHA3",5.06
same,PRISMA enrichment of interactor (log2),TMED7-TICAM2,6.93
B3,PRISMA enrichment of interactor (log2),"C12orf65, Q9H3J6",4.98
same,PRISMA enrichment of interactor (log2),"DLX6, P56179",4.69
same,PRISMA enrichment of interactor (log2),"DPYSL3, Q14195",3.91
same,PRISMA enrichment of interactor (log2),"FDX1, P10109",4.69
same,PRISMA enrichment of interactor (log2),"MRFAP1, Q9Y605",6.03
same,PRISMA enrichment of interactor (log2),"NNT, Q13423",6.84
B4,PRISMA enrichment of interactor (log2),"ASF1B, Q9NVP2",5.11
same,PRISMA enrichment of interactor (log2),"C3, P01024",5.4
same,PRISMA enrichment of interactor (log2),"CLTA, P09496",6.84
same,PRISMA enrichment of interactor (log2),"COG5, Q9UP83",5.64
same,PRISMA enrichment of interactor (log2),"EDRF1, Q3B7T1",6.26
same,PRISMA enrichment of interactor (log2),"KIF20A, O95235",4.56
same,PRISMA enrichment of interactor (log2),"KIF2C, Q99661",5.78
same,PRISMA enrichment of interactor (log2),"NUP58, Q9BVL2",5.63
same,PRISMA enrichment of interactor (log2),"PURA, Q00577",6.51
B5,PRISMA enrichment of interactor (log2),"AURKA, O14965",4.95
same,PRISMA enrichment of interactor (log2),"DDX28, Q9NUL7",4.28
same,PRISMA enrichment of interactor (log2),"ITPA, Q9BY32",7.2
same,PRISMA enrichment of interactor (log2),"RBM25, P49756",8.73
same,PRISMA enrichment of interactor (log2),"SAPCD2, Q86UD0",5.4
same,PRISMA enrichment of interactor (log2),"SRRM1, Q8IYB3",4.87
same,PRISMA enrichment of interactor (log2),"STAG2, Q8N3U4",6.98
B6,PRISMA enrichment of interactor (log2),"C19orf53, Q9UNZ5",6.74
same,PRISMA enrichment of interactor (log2),"CKS1B, P61024",5.33
same,PRISMA enrichment of interactor (log2),"CKS2, P33552",5.96
same,PRISMA enrichment of interactor (log2),"CSNK1E, P49674",6.44
same,PRISMA enrichment of interactor (log2),"CXorf56, Q9H5V9",6.66
same,PRISMA enrichment of interactor (log2),"DERPC, P0CG12",5.25
same,PRISMA enrichment of interactor (log2),"DNAJA3, Q96EY1",5.48
same,PRISMA enrichment of interactor (log2),"GABARAPL2, P60520",5.79
same,PRISMA enrichment of interactor (log2),"ISCU, Q9H1K1",5.73
same,PRISMA enrichment of interactor (log2),"MPG, P29372",5.31
same,PRISMA enrichment of interactor (log2),"NUDT16L1, Q9BRJ7",5.36
same,PRISMA enrichment of interactor (log2),"NXF1, Q9UBU9",7.24
same,PRISMA enrichment of interactor (log2),[1],5.83
same,PRISMA enrichment of interactor (log2),"PPIL2, Q13356",5.31
same,PRISMA enrichment of interactor (log2),"UFM1, P61960",4.61

# Some of the entries so far, tab-delimited.
binder	measurement	setting	value
B6	PRISMA enrichment of interactor (log2)	CKS1B, P61024	5.33
same	PRISMA enrichment of interactor (log2)	CKS2, P33552	5.96
same	PRISMA enrichment of interactor (log2)	CSNK1E, P49674	6.44
